The values that follow come from article PMC10412619.

Protein sequences, listed by entry. Tags and fused reporters are not part of them.
UniProt P98170: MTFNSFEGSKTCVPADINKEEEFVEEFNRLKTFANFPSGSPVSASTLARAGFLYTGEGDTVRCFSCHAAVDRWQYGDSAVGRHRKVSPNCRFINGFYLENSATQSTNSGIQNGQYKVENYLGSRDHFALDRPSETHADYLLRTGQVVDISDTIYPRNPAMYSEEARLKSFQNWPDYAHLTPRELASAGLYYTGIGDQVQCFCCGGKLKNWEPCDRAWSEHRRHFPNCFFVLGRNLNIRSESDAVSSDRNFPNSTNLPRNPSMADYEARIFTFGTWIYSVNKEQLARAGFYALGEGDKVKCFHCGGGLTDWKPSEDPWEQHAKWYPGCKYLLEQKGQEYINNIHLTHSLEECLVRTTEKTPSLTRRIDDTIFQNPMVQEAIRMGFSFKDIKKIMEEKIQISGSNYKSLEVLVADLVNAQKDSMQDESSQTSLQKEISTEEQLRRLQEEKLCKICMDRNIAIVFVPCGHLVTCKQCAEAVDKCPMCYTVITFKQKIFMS

These are yes or no findings as the source states them, for the method shown. In cells and extracts the contact can be indirect. These calls come from enrichment with a bait or labelling near it, and not all partners need be listed.

For the test, the target named is T1, DNA polymerase iota (POLI) (human (endogenous in TE-1)) (UniProt Q9UNA4).
T1 sequence: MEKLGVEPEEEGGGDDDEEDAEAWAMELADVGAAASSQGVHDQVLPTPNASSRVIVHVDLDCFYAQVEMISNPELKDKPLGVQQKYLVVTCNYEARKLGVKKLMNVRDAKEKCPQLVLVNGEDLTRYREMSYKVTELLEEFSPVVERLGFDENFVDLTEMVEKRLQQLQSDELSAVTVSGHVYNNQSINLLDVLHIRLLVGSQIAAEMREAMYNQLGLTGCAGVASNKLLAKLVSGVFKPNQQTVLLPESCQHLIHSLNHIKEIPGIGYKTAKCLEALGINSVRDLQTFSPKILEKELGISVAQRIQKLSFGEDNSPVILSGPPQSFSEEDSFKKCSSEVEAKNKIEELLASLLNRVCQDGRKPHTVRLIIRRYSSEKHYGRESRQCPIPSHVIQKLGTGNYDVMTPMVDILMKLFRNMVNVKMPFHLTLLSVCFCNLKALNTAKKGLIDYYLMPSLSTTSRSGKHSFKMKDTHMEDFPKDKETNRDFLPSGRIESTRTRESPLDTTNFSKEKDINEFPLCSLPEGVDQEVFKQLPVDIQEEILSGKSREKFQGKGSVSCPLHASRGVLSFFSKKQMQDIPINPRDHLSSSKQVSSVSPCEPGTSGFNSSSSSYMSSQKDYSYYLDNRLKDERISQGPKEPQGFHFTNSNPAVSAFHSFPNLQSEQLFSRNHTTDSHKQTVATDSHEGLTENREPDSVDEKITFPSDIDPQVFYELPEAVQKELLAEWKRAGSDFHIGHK
The test is described as follows: affinity purification with mass spectrometry; immunoprecipitation from cell lysate (RIPA lysis buffer, protein A + G agarose), LC-MS/MS, to identify proteins that interact with POLI.

In the case of “X-linked inhibitor of apoptosis (XIAP) (from UniProt P98170 1-497)”, the binding entry is reported as “binds”.
